Experimental data reported in the supplement of paper PMC7666118.
The other results are listed elsewhere or left out.

Amino acid sequences for entries named in this document (tags omitted). A change or cut given only in a name is not applied to a line headed by its entry.
UniProt Q5T440: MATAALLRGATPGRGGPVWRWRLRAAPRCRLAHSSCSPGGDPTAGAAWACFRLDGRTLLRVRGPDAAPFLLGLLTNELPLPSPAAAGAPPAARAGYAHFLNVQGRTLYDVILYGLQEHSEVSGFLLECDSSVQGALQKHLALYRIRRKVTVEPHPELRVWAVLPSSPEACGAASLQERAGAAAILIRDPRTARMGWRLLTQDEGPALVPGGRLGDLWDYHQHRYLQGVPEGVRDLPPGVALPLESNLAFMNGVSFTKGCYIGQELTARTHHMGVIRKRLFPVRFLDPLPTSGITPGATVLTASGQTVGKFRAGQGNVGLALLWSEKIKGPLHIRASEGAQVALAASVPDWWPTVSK
UniProt P56378: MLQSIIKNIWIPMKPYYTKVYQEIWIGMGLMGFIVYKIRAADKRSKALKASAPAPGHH
UniProt Q8WVR3: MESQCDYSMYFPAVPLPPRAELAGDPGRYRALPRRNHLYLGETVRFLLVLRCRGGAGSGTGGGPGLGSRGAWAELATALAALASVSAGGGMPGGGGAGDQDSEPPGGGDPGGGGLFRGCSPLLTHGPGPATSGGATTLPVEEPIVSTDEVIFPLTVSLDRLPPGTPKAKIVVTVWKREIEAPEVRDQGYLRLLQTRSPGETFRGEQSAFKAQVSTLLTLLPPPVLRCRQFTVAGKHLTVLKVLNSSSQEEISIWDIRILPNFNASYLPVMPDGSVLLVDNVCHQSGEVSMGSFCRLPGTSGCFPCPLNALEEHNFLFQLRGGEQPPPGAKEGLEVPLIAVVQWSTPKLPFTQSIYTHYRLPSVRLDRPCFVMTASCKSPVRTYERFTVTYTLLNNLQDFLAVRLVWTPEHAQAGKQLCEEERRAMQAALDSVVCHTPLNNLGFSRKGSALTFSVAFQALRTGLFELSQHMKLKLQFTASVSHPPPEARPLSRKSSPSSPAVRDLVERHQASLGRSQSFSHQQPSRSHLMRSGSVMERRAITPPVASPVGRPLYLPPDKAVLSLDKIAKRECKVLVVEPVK
UniProt Q6UWD8: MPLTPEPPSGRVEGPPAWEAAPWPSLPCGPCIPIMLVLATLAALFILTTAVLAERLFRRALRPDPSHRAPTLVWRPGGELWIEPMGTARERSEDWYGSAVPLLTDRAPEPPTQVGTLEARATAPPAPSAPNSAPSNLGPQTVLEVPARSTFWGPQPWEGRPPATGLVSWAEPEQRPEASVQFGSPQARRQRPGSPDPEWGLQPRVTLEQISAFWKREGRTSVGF
UniProt P42575: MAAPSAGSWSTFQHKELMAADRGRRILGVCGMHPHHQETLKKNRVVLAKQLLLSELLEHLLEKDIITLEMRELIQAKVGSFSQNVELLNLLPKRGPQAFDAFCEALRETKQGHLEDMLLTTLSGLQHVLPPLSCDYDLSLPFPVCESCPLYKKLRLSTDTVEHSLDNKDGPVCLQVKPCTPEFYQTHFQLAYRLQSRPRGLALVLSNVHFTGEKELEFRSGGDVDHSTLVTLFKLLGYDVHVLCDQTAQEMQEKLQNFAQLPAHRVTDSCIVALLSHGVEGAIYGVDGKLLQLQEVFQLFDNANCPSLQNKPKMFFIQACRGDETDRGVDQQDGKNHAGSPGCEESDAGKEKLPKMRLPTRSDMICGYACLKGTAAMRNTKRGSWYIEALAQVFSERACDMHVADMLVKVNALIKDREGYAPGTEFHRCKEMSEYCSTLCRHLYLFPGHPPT
UniProt Q96KF7: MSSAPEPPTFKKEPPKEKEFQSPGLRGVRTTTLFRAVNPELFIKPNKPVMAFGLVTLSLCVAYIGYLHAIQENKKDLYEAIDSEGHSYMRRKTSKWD
UniProt Q8TCD1: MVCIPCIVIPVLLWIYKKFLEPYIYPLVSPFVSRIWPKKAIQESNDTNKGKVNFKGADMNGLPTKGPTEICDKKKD
UniProt Q8NBI6: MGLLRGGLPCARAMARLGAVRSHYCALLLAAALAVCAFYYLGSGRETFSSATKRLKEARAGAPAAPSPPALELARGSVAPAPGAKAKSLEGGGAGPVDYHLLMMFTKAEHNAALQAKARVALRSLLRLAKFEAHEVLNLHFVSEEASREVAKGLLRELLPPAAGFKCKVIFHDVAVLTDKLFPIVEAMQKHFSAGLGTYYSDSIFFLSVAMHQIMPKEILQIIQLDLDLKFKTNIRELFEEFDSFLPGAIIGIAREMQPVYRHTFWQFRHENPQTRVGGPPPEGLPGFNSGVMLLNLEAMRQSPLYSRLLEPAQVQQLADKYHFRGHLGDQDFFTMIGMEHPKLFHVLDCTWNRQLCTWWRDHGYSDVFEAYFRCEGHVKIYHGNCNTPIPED
UniProt O43598: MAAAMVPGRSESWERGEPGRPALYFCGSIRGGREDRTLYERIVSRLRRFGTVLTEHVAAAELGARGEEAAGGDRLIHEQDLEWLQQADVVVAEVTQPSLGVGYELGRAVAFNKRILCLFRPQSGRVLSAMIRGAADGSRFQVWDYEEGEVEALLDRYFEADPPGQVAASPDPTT
UniProt Q9NPL8: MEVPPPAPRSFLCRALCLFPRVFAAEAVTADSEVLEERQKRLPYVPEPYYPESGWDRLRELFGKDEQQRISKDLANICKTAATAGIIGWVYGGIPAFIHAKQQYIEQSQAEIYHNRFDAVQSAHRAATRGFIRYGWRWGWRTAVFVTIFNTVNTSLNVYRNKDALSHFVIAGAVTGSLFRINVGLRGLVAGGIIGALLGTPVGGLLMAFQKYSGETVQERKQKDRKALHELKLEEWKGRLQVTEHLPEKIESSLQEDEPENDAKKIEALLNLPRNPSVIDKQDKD
UniProt Q96BW9: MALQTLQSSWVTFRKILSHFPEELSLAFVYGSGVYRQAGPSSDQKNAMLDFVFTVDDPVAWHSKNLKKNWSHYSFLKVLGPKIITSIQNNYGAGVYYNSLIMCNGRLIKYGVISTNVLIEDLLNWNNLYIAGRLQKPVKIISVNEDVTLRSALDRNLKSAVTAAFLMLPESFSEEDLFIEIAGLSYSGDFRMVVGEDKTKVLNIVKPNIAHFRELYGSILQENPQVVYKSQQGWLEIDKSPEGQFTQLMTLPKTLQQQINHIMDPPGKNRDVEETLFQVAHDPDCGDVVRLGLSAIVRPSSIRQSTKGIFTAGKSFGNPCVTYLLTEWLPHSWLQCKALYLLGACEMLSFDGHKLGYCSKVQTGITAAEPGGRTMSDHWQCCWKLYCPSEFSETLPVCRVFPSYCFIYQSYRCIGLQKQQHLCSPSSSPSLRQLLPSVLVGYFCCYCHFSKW
UniProt Q9NSG2: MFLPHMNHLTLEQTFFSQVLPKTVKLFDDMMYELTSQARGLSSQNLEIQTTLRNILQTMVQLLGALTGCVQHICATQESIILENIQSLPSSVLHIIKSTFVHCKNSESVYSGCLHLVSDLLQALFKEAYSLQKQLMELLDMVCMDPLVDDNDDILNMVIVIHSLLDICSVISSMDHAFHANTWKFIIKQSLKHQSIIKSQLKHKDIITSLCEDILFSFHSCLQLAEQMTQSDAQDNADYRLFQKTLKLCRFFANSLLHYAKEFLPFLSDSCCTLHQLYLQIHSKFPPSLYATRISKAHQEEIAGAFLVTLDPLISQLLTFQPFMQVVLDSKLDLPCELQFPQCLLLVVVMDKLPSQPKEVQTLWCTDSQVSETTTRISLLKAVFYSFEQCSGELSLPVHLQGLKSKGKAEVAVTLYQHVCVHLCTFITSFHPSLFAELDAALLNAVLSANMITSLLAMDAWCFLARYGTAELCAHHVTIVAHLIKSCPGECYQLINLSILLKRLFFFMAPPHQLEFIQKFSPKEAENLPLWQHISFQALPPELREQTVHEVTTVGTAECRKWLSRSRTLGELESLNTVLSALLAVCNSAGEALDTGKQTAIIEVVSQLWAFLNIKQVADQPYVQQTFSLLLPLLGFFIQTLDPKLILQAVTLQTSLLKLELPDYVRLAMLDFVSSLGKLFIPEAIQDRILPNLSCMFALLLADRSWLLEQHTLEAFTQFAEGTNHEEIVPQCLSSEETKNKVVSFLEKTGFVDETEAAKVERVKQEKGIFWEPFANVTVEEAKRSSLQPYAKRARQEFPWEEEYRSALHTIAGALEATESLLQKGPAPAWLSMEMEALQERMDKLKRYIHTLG
UniProt Q5JPI3: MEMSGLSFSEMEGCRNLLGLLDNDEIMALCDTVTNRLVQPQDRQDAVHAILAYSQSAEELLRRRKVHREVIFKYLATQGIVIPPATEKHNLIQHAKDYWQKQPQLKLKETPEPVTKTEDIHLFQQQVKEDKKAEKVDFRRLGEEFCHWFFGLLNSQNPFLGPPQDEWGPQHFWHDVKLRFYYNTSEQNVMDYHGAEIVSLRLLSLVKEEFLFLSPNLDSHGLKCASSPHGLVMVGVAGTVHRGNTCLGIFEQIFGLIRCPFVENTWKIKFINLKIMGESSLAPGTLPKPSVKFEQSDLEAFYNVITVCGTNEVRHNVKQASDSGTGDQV
UniProt Q8NDZ4: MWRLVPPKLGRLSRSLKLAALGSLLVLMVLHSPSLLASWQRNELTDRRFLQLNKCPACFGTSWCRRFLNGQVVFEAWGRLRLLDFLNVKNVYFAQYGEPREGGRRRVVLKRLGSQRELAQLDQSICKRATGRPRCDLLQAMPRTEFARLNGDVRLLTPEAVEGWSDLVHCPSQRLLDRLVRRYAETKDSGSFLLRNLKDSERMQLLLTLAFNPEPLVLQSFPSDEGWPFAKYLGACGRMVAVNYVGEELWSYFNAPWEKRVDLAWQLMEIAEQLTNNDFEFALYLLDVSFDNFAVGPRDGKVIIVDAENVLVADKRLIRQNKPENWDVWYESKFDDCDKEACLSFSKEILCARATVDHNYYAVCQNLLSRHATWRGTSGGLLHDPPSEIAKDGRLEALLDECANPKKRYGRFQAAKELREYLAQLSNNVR
UniProt Q9BUH6, whole entry: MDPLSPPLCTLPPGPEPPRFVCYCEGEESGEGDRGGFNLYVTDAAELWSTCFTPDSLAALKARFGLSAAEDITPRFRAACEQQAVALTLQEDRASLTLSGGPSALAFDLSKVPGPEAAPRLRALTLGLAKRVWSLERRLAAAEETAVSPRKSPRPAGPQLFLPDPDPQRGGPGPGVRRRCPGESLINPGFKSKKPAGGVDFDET
UniProt Q9HB71, whole entry: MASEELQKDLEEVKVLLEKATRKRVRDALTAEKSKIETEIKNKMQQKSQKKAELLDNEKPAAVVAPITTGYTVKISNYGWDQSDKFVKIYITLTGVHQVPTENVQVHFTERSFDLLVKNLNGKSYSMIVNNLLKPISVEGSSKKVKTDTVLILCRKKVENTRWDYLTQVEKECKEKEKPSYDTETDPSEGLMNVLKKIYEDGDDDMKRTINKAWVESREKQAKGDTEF
UniProt Q9GZP4: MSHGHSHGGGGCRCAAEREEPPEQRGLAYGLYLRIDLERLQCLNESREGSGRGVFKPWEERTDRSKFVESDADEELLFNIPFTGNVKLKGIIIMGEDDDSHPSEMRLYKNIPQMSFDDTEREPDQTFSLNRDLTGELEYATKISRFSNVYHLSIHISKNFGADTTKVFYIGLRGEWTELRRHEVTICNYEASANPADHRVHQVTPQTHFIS
UniProt Q8WVQ1: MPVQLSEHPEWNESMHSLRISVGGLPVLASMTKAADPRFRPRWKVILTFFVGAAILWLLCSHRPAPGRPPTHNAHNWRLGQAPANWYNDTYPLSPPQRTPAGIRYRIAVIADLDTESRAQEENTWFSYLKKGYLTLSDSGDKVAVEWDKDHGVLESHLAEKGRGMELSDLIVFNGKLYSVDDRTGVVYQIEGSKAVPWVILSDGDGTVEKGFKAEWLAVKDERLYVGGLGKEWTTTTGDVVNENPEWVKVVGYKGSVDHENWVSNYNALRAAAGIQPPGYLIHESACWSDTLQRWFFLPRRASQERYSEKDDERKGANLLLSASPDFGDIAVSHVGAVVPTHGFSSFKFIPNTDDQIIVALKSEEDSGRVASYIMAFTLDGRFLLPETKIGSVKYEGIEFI
UniProt Q53F19: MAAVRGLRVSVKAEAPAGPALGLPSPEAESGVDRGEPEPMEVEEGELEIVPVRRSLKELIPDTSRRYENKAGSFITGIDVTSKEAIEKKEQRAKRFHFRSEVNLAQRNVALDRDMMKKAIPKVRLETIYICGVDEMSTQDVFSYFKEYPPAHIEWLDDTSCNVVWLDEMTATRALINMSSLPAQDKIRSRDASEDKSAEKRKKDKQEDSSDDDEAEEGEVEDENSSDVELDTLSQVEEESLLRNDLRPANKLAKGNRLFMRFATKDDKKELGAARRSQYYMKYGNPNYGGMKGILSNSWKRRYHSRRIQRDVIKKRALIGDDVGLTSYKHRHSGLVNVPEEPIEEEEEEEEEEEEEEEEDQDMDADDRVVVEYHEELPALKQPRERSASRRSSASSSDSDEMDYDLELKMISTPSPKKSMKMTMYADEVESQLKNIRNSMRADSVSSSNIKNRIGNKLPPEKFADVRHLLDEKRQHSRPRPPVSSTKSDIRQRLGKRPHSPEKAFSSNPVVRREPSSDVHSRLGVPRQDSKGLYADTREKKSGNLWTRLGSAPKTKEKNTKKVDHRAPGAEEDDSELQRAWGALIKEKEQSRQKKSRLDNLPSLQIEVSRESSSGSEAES
UniProt Q969H8: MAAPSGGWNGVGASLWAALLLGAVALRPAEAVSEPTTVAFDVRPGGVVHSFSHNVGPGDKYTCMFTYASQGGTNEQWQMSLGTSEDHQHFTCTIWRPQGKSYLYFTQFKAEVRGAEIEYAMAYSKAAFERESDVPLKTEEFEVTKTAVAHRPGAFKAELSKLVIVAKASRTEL

Each target was assayed with COc1ccc(Cn2ccc3ccc(C(=O)NO)cc32)cc1 (assay: dose-dependent thermal stabilisation call (2D-TPP, DLPTP, 10% FDR) (binary (1 = stabilised)); higher = stabilised by the compound). Settings: system: HL-60 intact cells; concentration range 0.04-10 µM.
For C1ORF69 (UniProt Q5T440), the “dose-dependent thermal stabilisation call” value was inactive: 0.
In the case of C14ORF2 (UniProt P56378), the “dose-dependent thermal stabilisation call” value is reported as inactive: 0.
In the case of C7ORF43 (UniProt Q8WVR3), the “dose-dependent thermal stabilisation call” value is reported as inactive: 0.
For C14ORF159 (UniProt Q7Z3D6), the “dose-dependent thermal stabilisation call” value was inactive: 0.
CALR (UniProt P27797) was tested, and the “dose-dependent thermal stabilisation call” value was inactive: 0.
C16ORF54 (UniProt Q6UWD8) was tested, and the “dose-dependent thermal stabilisation call” value was inactive: 0.
For CASP2 (UniProt P42575), the “dose-dependent thermal stabilisation call” value was inactive: 0.
C15ORF15 (UniProt Q9UHA3) was tested, and the “dose-dependent thermal stabilisation call” value was inactive: 0.
For C16ORF63 (UniProt Q96NB1), the “dose-dependent thermal stabilisation call” value was inactive: 0.
In the case of C18ORF8 (UniProt Q96DM3), the “dose-dependent thermal stabilisation call” value is reported as inactive: 0.
In the case of C1ORF107 (UniProt Q68CQ4), the “dose-dependent thermal stabilisation call” value is reported as inactive: 0.
For C5ORF44 (UniProt A5PLN9), the “dose-dependent thermal stabilisation call” value was inactive: 0.
In the case of C6ORF162 (UniProt Q96KF7), the “dose-dependent thermal stabilisation call” value is reported as inactive: 0.
C18ORF32 (UniProt Q8TCD1) was tested, and the “dose-dependent thermal stabilisation call” value was inactive: 0.
C17ORF62 (UniProt Q9BQA9) was tested, and the “dose-dependent thermal stabilisation call” value was inactive: 0.
C3ORF21 (UniProt Q8NBI6) was tested, and the “dose-dependent thermal stabilisation call” value was inactive: 0.
For C6ORF108 (UniProt O43598), the “dose-dependent thermal stabilisation call” value was inactive: 0.
CACNA2D1 (UniProt P54289) was tested, and the “dose-dependent thermal stabilisation call” value was inactive: 0.
In the case of CASC5 (UniProt Q8NG31), the “dose-dependent thermal stabilisation call” value is reported as inactive: 0.
For C3ORF1 (UniProt Q9NPL8), the “dose-dependent thermal stabilisation call” value was inactive: 0.
For C3ORF31 (UniProt Q96BW9), the “dose-dependent thermal stabilisation call” value was inactive: 0.
In the case of C1ORF112 (UniProt Q9NSG2), the “dose-dependent thermal stabilisation call” value is reported as inactive: 0.
For C1ORF131 (UniProt Q8NDD1), the “dose-dependent thermal stabilisation call” value was inactive: 0.
In the case of C3ORF38 (UniProt Q5JPI3), the “dose-dependent thermal stabilisation call” value is reported as inactive: 0.
For C3ORF58 (UniProt Q8NDZ4), the “dose-dependent thermal stabilisation call” value was inactive: 0.
With C1ORF149 (UniProt Q9HAF1) the “dose-dependent thermal stabilisation call” value was inactive: 0.
With C9ORF142 (UniProt Q9BUH6) the “dose-dependent thermal stabilisation call” value was inactive: 0.
CBFB (UniProt Q13951) was tested, and the “dose-dependent thermal stabilisation call” value was inactive: 0.
With CASP9 (UniProt P55211) the “dose-dependent thermal stabilisation call” value was inactive: 0.
For C19ORF43 (UniProt Q9BQ61), the “dose-dependent thermal stabilisation call” value was inactive: 0.
With CACYBP (UniProt Q9HB71) the “dose-dependent thermal stabilisation call” value was inactive: 0.
With C1ORF128 (UniProt Q9GZP4) the “dose-dependent thermal stabilisation call” value was inactive: 0.
With CANT1 (UniProt Q8WVQ1) the “dose-dependent thermal stabilisation call” value was inactive: 0.
In the case of C17ORF85 (UniProt Q53F19), the “dose-dependent thermal stabilisation call” value is reported as inactive: 0.
In the case of C19ORF62 (UniProt Q9NWV8), the “dose-dependent thermal stabilisation call” value is reported as inactive: 0.
In the case of C19ORF10 (UniProt Q969H8), the “dose-dependent thermal stabilisation call” value is reported as inactive: 0.
With C14ORF94 (UniProt Q9H6D7) the “dose-dependent thermal stabilisation call” value was inactive: 0.
